# Measured values published in article PMC7819943, “Rice protein-binding microarrays: a tool to detect cis-acting elements near promoter regions in rice”.
# The list shows a part of the results.
# Target: T1, OsSMF1 (Oryza sativa, UniProt Q6ZLB0 1-436)
# T1 sequence: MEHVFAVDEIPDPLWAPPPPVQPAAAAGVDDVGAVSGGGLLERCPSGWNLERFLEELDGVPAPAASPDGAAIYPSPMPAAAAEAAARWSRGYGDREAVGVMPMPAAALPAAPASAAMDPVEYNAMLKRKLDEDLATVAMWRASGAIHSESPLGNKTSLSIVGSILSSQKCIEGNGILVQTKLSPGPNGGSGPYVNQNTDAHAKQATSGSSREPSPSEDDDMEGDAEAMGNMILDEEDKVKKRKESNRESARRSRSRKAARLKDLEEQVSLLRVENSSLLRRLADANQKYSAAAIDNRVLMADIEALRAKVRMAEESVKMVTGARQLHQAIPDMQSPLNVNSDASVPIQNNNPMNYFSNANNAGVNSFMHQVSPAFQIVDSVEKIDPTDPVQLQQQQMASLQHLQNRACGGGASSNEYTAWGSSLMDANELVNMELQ
# Assay: protein-binding microarray (RPBM); PBS, 2% BSA, 51.3 ng/ul salmon testes DNA, 50 uM zinc acetate, 200 nM TF, 25 C, 1 h; high values mean tight binding
# Details: protein: recombinant; tags: N-terminal polyhistidine and DsRed monomer fusion (pET32a); chain copies: 2; label: CyDye5-dUTP incorporated in the synthesized complementary strand; 3' TTTTT single-stranded linker to array surface; dsDNA, one strand shown
# How it was run: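 For the binding signal, per-feature fluorescence intensity was read in arbitrary units on an Axon 4000B scanner. Before scanning, a 2% BSA-blocked custom Agilent array made double-stranded with Cy5-dUTP was washed after 1 h at 25 °C with 200 nM protein and 50 µM zinc acetate. The proteins were Ni–NTA-purified transcription factors with N-terminal polyhistidine and DsRed fusions, expressed in E. coli BL21-CodonPlus.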
row,Sequence,binding signal
1,AGAGGCATGGGAGTCATGTTCAGGGTGATGGGAGATGGAGCGGAGTCACCTAGTGCAG,3260 fluorescence intensity (a.u.)
2,AGCAATGTCTGTCCCATTCCATCAAGTCACCAGCTACATGCGGAGTCACCTAGTGCAG,3470 fluorescence intensity (a.u.)
3,TCTAAGTCTAGTGGTTTGGTTTCTTCCACGACTTCTTTGGCGGAGTCACCTAGTGCAG,3940 fluorescence intensity (a.u.)
4,AGGGATTATGTGTGTGTAAGATATTTGTGACTAGTTTATTCGGAGTCACCTAGTGCAG,3630 fluorescence intensity (a.u.)
5,GAGATGAATCTCAGCCGCGTCATCCACCTCATTGCTCTTACGGAGTCACCTAGTGCAG,9370 fluorescence intensity (a.u.)
6,GTCCCACGCTCTCTCGCTCGCTCGCTGACGTGCGGGACCCCGGAGTCACCTAGTGCAG,7440 fluorescence intensity (a.u.)
7,TTTCGACGATCCAAACGTCATCGCTACATCGTCTGAAACCCGGAGTCACCTAGTGCAG,4340 fluorescence intensity (a.u.)
8,CCACGCCGCCGCCGCCGCCGCCGTCTCGTCAGCAAGCGCTCGGAGTCACCTAGTGCAG,5000 fluorescence intensity (a.u.)
9,CCCGTCGATGACAGGGTATTCCAGGAGCTCCAAGCATGAACGGAGTCACCTAGTGCAG,29400 fluorescence intensity (a.u.)
10,TACCTGCCATGGTGAAAGATTTGTTGACTCAGTTTGATAGCGGAGTCACCTAGTGCAG,3330 fluorescence intensity (a.u.)
11,GTACATATAGCTACCCGAACCACCGCCGCCGCCGCCGCCACGGAGTCACCTAGTGCAG,3460 fluorescence intensity (a.u.)
12,AGAGACTGATTGATTGGTGGAGAAGCTGTGAGGTGGGGTTCGGAGTCACCTAGTGCAG,4770 fluorescence intensity (a.u.)
13,GGCGGCGGCGGCGGCGGAGGAGGCGGCGGGTCTAGGGTTGCGGAGTCACCTAGTGCAG,3680 fluorescence intensity (a.u.)
14,AGCAGTCCGTACAGCCCCGACACAGATGCATGACGCGTGGCGGAGTCACCTAGTGCAG,7720 fluorescence intensity (a.u.)
15,CCCCAAACCCTAAATATTTCTCCACGGCGGCAGGCATACACGGAGTCACCTAGTGCAG,3510 fluorescence intensity (a.u.)
16,GCCGATAGAGCAAATGATGAACCCTGTCTTCTCTTGATCTCGGAGTCACCTAGTGCAG,3200 fluorescence intensity (a.u.)
17,CATCGGCTCAAAGATAAATAATACATCATCGGCGACTGGCCGGAGTCACCTAGTGCAG,3290 fluorescence intensity (a.u.)
18,TGCAAAGTTGCAAGCTCGCAAACTGCTAATTACGCTATTTCGGAGTCACCTAGTGCAG,3270 fluorescence intensity (a.u.)
19,TTAGCTAGACTACAGCTCTAGTAGAGCTGTAGAGGTAGAGCGGAGTCACCTAGTGCAG,44000 fluorescence intensity (a.u.)
20,TTCATGACTTGACGTCACCAGCTTTCCTTACCCCGTAAGCCGGAGTCACCTAGTGCAG,20100 fluorescence intensity (a.u.)
21,GCTGCATCTACCCTCTAATCTTGTGAAGAATAGTCTGCATCGGAGTCACCTAGTGCAG,27000 fluorescence intensity (a.u.)

# Another view of some results above:
row | Sequence | binding signal
15 | CCCCAAACCCTAAATATTTCTCCACGGCGGCAGGCATACACGGAGTCACCTAGTGCAG | 3510 fluorescence intensity (a.u.)
20 | TTCATGACTTGACGTCACCAGCTTTCCTTACCCCGTAAGCCGGAGTCACCTAGTGCAG | 20100 fluorescence intensity (a.u.)

# Next entries follow:

row,Sequence,binding signal
1,TCCTATCCTATGCATGAAATGAGTCAGAGGCTCACAATAGCGGAGTCACCTAGTGCAG,5160 fluorescence intensity (a.u.)
2,TCCTGCCACCACCACCATGGCACCAGCTCAGCTCAGCTCACGGAGTCACCTAGTGCAG,4240 fluorescence intensity (a.u.)
3,GTTTCTCCACGCATCAAGGACTCAGCTCGGTTTAGTTAGTCGGAGTCACCTAGTGCAG,5340 fluorescence intensity (a.u.)
4,TTTGTGAAAGCAACATATCTCATATTGATCTATCTTACTACGGAGTCACCTAGTGCAG,3190 fluorescence intensity (a.u.)
5,CTATATCAATATGAAATGACGCACTATCTCATTTGTATTGCGGAGTCACCTAGTGCAG,3560 fluorescence intensity (a.u.)
6,TCGACTCTGTGATGACAAATAGACAACACATTTCTCTCATCGGAGTCACCTAGTGCAG,3290 fluorescence intensity (a.u.)
7,CCGCGTCCGCGCCCGTCCCCACGCCACCAGGCGGTCTCCGCGGAGTCACCTAGTGCAG,3240 fluorescence intensity (a.u.)
8,AAGTGGCTCTAAGTGTGCCAAAGTGCGTTCGTGTCGATCGCGGAGTCACCTAGTGCAG,3200 fluorescence intensity (a.u.)
9,TTAGAATCCATCTAATAACAACGTGTCCTTGTTTCCCATTCGGAGTCACCTAGTGCAG,4740 fluorescence intensity (a.u.)
10,TGCGTATGGGATTGGGCTGCAACATGCGCGTGCACCACGTCGGAGTCACCTAGTGCAG,4000 fluorescence intensity (a.u.)
11,GTTGCGTAGGCAGCGGCAACGCATGCACAGTCACACACCCCGGAGTCACCTAGTGCAG,5630 fluorescence intensity (a.u.)
12,GCATCGACGAGCTCCGACGTGGCGGCCGCCAACGACGAGCCGGAGTCACCTAGTGCAG,7640 fluorescence intensity (a.u.)
13,TAGGGAGTCGAGGACGTCATCGTTGAGCTCGCTGATTAGGCGGAGTCACCTAGTGCAG,6510 fluorescence intensity (a.u.)
14,TACATATTCTTGTGTTGTAGACTTGTCACTGTCAGTCTTGCGGAGTCACCTAGTGCAG,4400 fluorescence intensity (a.u.)
15,CCCTAGCTTGAGGCATGCATATAATACAGTGTATGCTATCCGGAGTCACCTAGTGCAG,3150 fluorescence intensity (a.u.)
16,ACTTAATTTAAGTGGCTCCGACTTGACGTACGACTGATCTCGGAGTCACCTAGTGCAG,3560 fluorescence intensity (a.u.)
17,CACGTACGTGACTCGCGCGCTGACGTCATCCGGGCTTCCACGGAGTCACCTAGTGCAG,20300 fluorescence intensity (a.u.)
18,TAACACAACTATTTACTCAGCTCACGTGTTTCATTAACAACGGAGTCACCTAGTGCAG,3340 fluorescence intensity (a.u.)
19,AGTCGCATCTACATTCTACAGCGTCTTCCATTTACTGACGCGGAGTCACCTAGTGCAG,3830 fluorescence intensity (a.u.)
20,GTGCAAGTTTTCTTTTCAATGACAAGGCTATCGATGACGCCGGAGTCACCTAGTGCAG,3780 fluorescence intensity (a.u.)
21,CAAGCCAAGCCAAGTCACACACCGCATGCGCGCGGTAGCACGGAGTCACCTAGTGCAG,4160 fluorescence intensity (a.u.)
